Source: patent publication US6694171B1, “X-ray imaging of tumors with dextran carrier of platinum compounds” (Yeda Research and Development, priority 1997, dated 2004)
At least one compound was matched to its structure with a doubt left.

Assay: Interaction between CDDP and ADH or hydrazine by OPDA colour reaction (FIGS. 4A-4B)
Assay type: physicochemical
Conditions: 6 μg CDDP, OPDA 4 mg/ml
Method: The absorbance at 703 nm was determined (FIG. 4A).

Structure (SMILES): NN [hydrazine]
- molar excess for complete complexing of CDDP (no color reaction with OPDA) (5 minutes, 100° C.): 50:1
- leveling-off ratio ligand:CDDP: 10
